Paper PMC8850466
These are yes or no findings as the source states them, for the method shown. In cells and extracts the contact can be indirect. Some binding calls cover weakened binding; strength is not graded here. Sequences can lack the tags named with a protein.

Biological target: T1, PARK7-Flag (mouse PARK7) (mouse) (UniProt Q99LX0)
T1 sequence: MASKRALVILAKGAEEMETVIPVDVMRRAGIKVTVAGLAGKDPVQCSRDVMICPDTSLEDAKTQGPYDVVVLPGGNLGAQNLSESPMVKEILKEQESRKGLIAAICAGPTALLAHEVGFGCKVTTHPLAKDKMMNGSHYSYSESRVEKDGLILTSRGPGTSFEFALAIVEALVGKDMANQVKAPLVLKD
Assay: co-IP; LONP1-GFP and PARK7-Flag cotransfected in HEK293T cells; whole lysate 48 h after transfection (50 mM Tris pH 7.5, 150 mM NaCl, 2 mM EDTA, 1.5% NP40); M2 anti-FLAG antibody and protein G agarose beads; immunoblot

binding: binds
B1: LONP1-GFP (mouse Lon protease homolog, mitochondrial) (enzyme, UniProt Q8CGK3 66-949)
chain: LWDSGNRGGSDETSEGGAEDGATASTGEGPVVTALAPMTVPDVFPHLPLIAITRNPVFPRFIKIVEVKNKKLVELLRRKVRLAQPYVGVFLKRDDNNESDVVESLDEIYHTGTFAQIHEMQDLGDKLRMIVTGHRRIHISRQLEVEPEGLEPEAEKQKSRRKLKRGKKEVEDELGPKPQLEMVTEAATDTSKEVLMVEVENVAHEDFQVTEEVKALTAEIVKTIRDIIALNPLYRESVLQMMQAGQRVVDNPIYLSDMGAALTGAESHELQDVLEETNILKRLYKALSLLKKEFELSKLQQRLGREVEEKIKQTHRKYLLQEQLKIIKKELGLEKDDKDAIEEKFRERLRELVVPKHVMDVVDEELSKLALLDNHSSEFNVTRNYLDWLTSIPWGRQSDENLDLARAQAVLEEDHYGMEDVKKRVLEFIAVSQLRGSTQGKILCFHGPPGVGKTSIARSIARALGREYFRFSVGGMTDVAEIKGHRRTYVGAMPGKIIQCLKKTKTENPLVLIDEVDKIGRGYQGDPSSALLELLDPEQNANFLDHYLDVPVDLSKVLFICTANVIDTIPEPLRDRMEMINVSGYVAQEKLAIAERYLVPQARTLCGLDESKAQLSAAVLTLLIKQYCRESGVRNLQKQVEKVLRKAAYKIVSGEAQTVQVTPENLQDFVGKPVFTVERMYEVTPPGVVMGLAWTAMGGSTLFVETSLRRPQPSGSKEDKDGSLEVTGQLGDVMKESARIAYTYARAFLMEQDPENDFLVTSHIHLHVPEGATPKDGPSAGCTIVTALLSLALGQPVLQNLAMTGEVSLTGKVLPVGGIKEKTIAAKRAGVTCIILPAENRKDYSDLAPFITEGLEVHFVEHYRDIFPIAFPRREHREALAVER
